Measurements reported in PubChem BioAssay AID1259405 (NCATS, 2018)
The deposit covers about 50,000 reagents; below is a random part of them. About 4,000 of all reagents (8%) were called active. 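Mouse siRNA library applied to hamster cells; one well for each siRNA.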 The numbers tell different reagents against one gene apart.

Aim: 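Knock-downs that lift recombinant protein yield in hamster ovary cells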 (primary screen)
Cell system: Chinese hamster CHO-K1 ovary cells with stable secreted eGFP expression
Reagent: single siRNA against mouse genes, 0.8 pmol siRNA per well (2 µl of 400 nM stock)
Duration: 3 days
Detection: 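Percent of the per-plate non-targeting control median for intracellular GFP per well by laser scanning cytometry and for cell viability by ATP luminescence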
Direction: GFP, % of control: higher = more GFP per well, higher productivity; viability (ATP), % of control: higher = more viable cells (more ATP)
Rule for the call: 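a knock-down is called active if GFP reaches 120% or more of non-targeting control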

Adgra2 #1 — GFP, % of control: 78; viability (ATP), % of control: 68.9; activity call: inactive
Adgra2 #2 — GFP, % of control: 94.8; viability (ATP), % of control: 88; activity call: inactive
Adgra2 #3 — GFP, % of control: 140; viability (ATP), % of control: 75.7; activity call: active
Fjx1 #1 — GFP, % of control: 60.3; viability (ATP), % of control: 83.2; activity call: inactive
Fjx1 #2 — GFP, % of control: 50.2; viability (ATP), % of control: 89.6; activity call: inactive
Fjx1 #3 — GFP, % of control: 92.3; viability (ATP), % of control: 75.6; activity call: inactive
Adam6a #1 — GFP, % of control: 102; viability (ATP), % of control: 117; activity call: inactive
Adam6a #2 — GFP, % of control: 67.4; viability (ATP), % of control: 68.4; activity call: inactive
Adam6a #3 — GFP, % of control: 44.3; viability (ATP), % of control: 64.9; activity call: inactive
Capn3 #1 — GFP, % of control: 86.2; viability (ATP), % of control: 89.1; activity call: inactive
Capn3 #2 — GFP, % of control: 80.8; viability (ATP), % of control: 83.6; activity call: inactive
Capn3 #3 — GFP, % of control: 69.4; viability (ATP), % of control: 70.7; activity call: inactive
Rab8b #1 — GFP, % of control: 83.3; viability (ATP), % of control: 87.4; activity call: inactive
Rab8b #2 — GFP, % of control: 95.4; viability (ATP), % of control: 75.6; activity call: inactive
Rab8b #3 — GFP, % of control: 56.1; viability (ATP), % of control: 71.6; activity call: inactive
Gsk3b — GFP, % of control: 43.1; viability (ATP), % of control: 44.4; activity call: inactive
Tcl1 #1 — GFP, % of control: 106; viability (ATP), % of control: 61.4; activity call: inactive
Tcl1 #2 — GFP, % of control: 102; viability (ATP), % of control: 84.2; activity call: inactive
Tcl1 #3 — GFP, % of control: 82.9; viability (ATP), % of control: 73.3; activity call: inactive

Individual results from the entries so far.
Adam6a #2, viability (ATP), % of control → 68.4
Value of Fjx1 #2 in “activity call”: inactive
Rab8b #1, GFP, % of control: 83.3
Rab8b #2, activity call → inactive

Next results follow:
Col4a5 #1 — GFP, % of control: 71.4; viability (ATP), % of control: 82; activity call: inactive
Col4a5 #2 — GFP, % of control: 57.1; viability (ATP), % of control: 80.4; activity call: inactive
Col4a5 #3 — GFP, % of control: 52; viability (ATP), % of control: 74.5; activity call: inactive
Vmn1r210 #1 — GFP, % of control: 81.1; viability (ATP), % of control: 26.2; activity call: inactive
Vmn1r210 #2 — GFP, % of control: 65.4; viability (ATP), % of control: 96.7; activity call: inactive
Vmn1r210 #3 — GFP, % of control: 32.9; viability (ATP), % of control: 28.4; activity call: inactive
Dph7 #1 — GFP, % of control: 73.3; viability (ATP), % of control: 78.4; activity call: inactive
Dph7 #2 — GFP, % of control: 78.3; viability (ATP), % of control: 53.6; activity call: inactive
Dph7 #3 — GFP, % of control: 87; viability (ATP), % of control: 82.4; activity call: inactive
Nell2 #1 — GFP, % of control: 135; viability (ATP), % of control: 70.9; activity call: active
Nell2 #2 — GFP, % of control: 101; viability (ATP), % of control: 89; activity call: inactive
Ccdc124 #1 — GFP, % of control: 49.5; viability (ATP), % of control: 53.9; activity call: inactive
Ccdc124 #2 — GFP, % of control: 23.3; viability (ATP), % of control: 21.2; activity call: inactive
Ccdc124 #3 — GFP, % of control: 99.8; viability (ATP), % of control: 102; activity call: inactive
2300002M23Rik #1 — GFP, % of control: 112; viability (ATP), % of control: 72.4; activity call: inactive
2300002M23Rik #2 — GFP, % of control: 21.1; viability (ATP), % of control: 29; activity call: inactive
2300002M23Rik #3 — GFP, % of control: 73.9; viability (ATP), % of control: 80.2; activity call: inactive
Plcxd3 #1 — GFP, % of control: 170; viability (ATP), % of control: 132; activity call: active
Plcxd3 #2 — GFP, % of control: 94.4; viability (ATP), % of control: 66.3; activity call: inactive
Plcxd3 #3 — GFP, % of control: 86.6; viability (ATP), % of control: 79.5; activity call: inactive
Plcxd3 #4 — GFP, % of control: 185; viability (ATP), % of control: 75.2; activity call: active
Plcxd3 #5 — GFP, % of control: 110; viability (ATP), % of control: 78.1; activity call: inactive
Plcxd3 #6 — GFP, % of control: 74.5; viability (ATP), % of control: 81; activity call: inactive
